Here are results for three substances from paper PMC11015564.

For assay [1], the target named is BbOsrR2::Myc fusion protein (Beauveria bassiana) (UniProt J5JXE0). Nature of the assay: co-IP; lysates of B. bassiana mycelia co-expressing the tagged proteins (wild type, ΔBbOsrR1, ΔBbOsrR3 or ΔBbClp1 background), grown in ¼ SDY or ¼ SDY with 4 mM H2O2 or 60 μM MND for 30 min; Anti-c-Myc, Anti-GFP or HisPur Ni-NTA magnetic beads, 4 °C overnight; Western blotting with anti-GFP, anti-Myc and anti-His antibodies. (A western blot detects proteins with antibodies after separation by electrophoresis.)

The target in assay [2] is BbOsrR3::His fusion protein (Beauveria bassiana) (UniProt J5K4G2). The description is as above.

Results are given in words; binding and its absence hold for the method and conditions named. Binding seen in cells or lysates may run through a third protein. Binding calls can cover weak binding; strength is not graded here.

“BbClp1::eGFP fusion protein (from UniProt J5JJA4)”: in assay [1], the binding entry is reported as “binds”.
As to “BbOsrR2::Myc fusion protein (from UniProt J5JXE0)”, the binding entry in assay [2] is reported as “binds”.
On to “BbOsrR3::His fusion protein (from UniProt J5K4G2)”, for which the binding entry in assay [1] was “binds”.
